Test results as given in PubChem BioAssay AID504834 (National Center for Advancing Translational Sciences (NCATS), 2011).
Hit rate of the full screen: of about 320,000 compounds, about 22,000 (6.9%) were called active. Inconclusive results, whose numbers are uncertain, are shown with a selection of clear calls. Calls follow the shape of the dose curve; as a rule, active = well fitted inhibition curve with a large enough effect; inconclusive = small, poorly fitted or top-dose-only effect, or another doubt; inactive = no such curve, though single readings can be large or run the other way. A potency beside an inconclusive call is a rough fit, not a confirmed value.
% is scaled to controls: 0 for no effect and ±100 for the full control effect; potency is read from the fitted curve at half-maximal effect.

Experiment: Primary qHTS for delayed death inhibitors of the malarial parasite plastid, 96 hour incubation
Conditions: P. falciparum luciferase reporter growth; series mostly up to 28.7 µM; activity change, negative = inhibition: at the top concentration
Outline: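 Readout is luminescence from an integrated firefly luciferase in P. falciparum. Red cells, 2% hematocrit and 0.05% parasitemia final, were cultured with compound through two parasite generations (96 hours) at 37 C, 5% CO2.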
With `CN1C[C@@H]2C(c3ccc(C(F)(F)F)cc3)C3(c4cccnc4)CC2(C3)[C@H]1c1ccccc1` (some centres undefined) the Potency was active: 2.94 µM.
In the case of `COCCNC(=S)N/N=C(\C)c1ccc(Cl)s1`, the Potency is reported as inconclusive: 4.15 µM [inhibitor, partial curve].
In the case of `CCN(CC)C1=C(Cl)C(=O)C(Cl)C12OCCO2` (centres undefined), the “activity change, negative = inhibition” value is reported as inactive: -6.45%.
With `O=C1CCSc2ccc(Cl)cc2N1Cc1ccc(Cl)cc1` the Potency was active: 14.7 µM.
For `O=C(NNS(=O)(=O)c1ccccc1[N+](=O)[O-])c1cccnc1`, the Potency was inconclusive: 10.4 µM [inhibitor, single point].
With `CCCn1c(=S)[nH]c2cc(C(=O)N3CCN(C(=O)OCC)CC3)ccc2c1=O` the Potency was inconclusive: 11.7 µM [inhibitor, single point].
With `Cc1ccc(N(CC(=O)NCc2ccccc2Cl)S(=O)(=O)c2c(C)noc2C)cc1` the Potency was inconclusive: 8.28 µM [inhibitor, partial curve].
For `CCCCOC(=O)c1cc(=O)[nH]c2ccc(C)cc12`, the Potency was inconclusive: 10.4 µM [inhibitor, partial curve, poor fit].
In the case of `COc1ccc(C(C)=O)cc1CSc1nnc(C)s1`, the “activity change, negative = inhibition” value is reported as inactive: 35.8%.
For `Cc1cc(C(=O)OCC(=O)Nc2cccc(S(N)(=O)=O)c2)c2ccccc2n1`, the “activity change, negative = inhibition” value was inactive: -0.74%.
With `CCCCCCCCCCCC(=O)NC(C(=O)OCC)C(O)c1cccc([N+](=O)[O-])c1` (centres undefined) the Potency was inconclusive: 0.928 µM [inhibitor, full curve, poor fit].
For `O=C(NCCN1CCCCC1)c1c(O)c2ccccc2[nH]c1=O`, the Potency was inconclusive: 18.5 µM [inhibitor, single point].
With `CNC(=S)N(Cc1cc2cc(C)cc(C)c2[nH]c1=O)C1CCCC1` the Potency was inconclusive: 0.0033 µM [inhibitor, full curve, poor fit].
For `CCC(=O)N1CCC2(CC1)Oc1ccc(Cl)cc1C(=O)C21CC(c2ccccc2)=NO1` (centres undefined), the Potency was inconclusive: 18.5 µM [inhibitor, single point].
In the case of `Cc1cccc(CSCCNC(=O)COc2ccc(Cl)cc2)c1`, the Potency is reported as inconclusive: 13.1 µM [inhibitor, single point].
In the case of `O=C(CN1C(=O)C(=O)c2ccccc21)c1ccc(Cl)cc1`, the Potency is reported as inconclusive: 0.104 µM [inhibitor, full curve, poor fit].
With `COc1ccc(S(=O)(=O)N2CCN(CC(=O)N3CCc4ccccc4C3)CC2)cc1OC` the Potency was active: 9.28 µM.
In the case of `COC(=O)c1ccc(CS(=O)(=O)c2ccc(C)cc2)o1`, the Potency is reported as inconclusive: 18.5 µM [inhibitor, single point].
In the case of `Cc1cc(Br)c(OCc2ccc(C(=O)N/N=C3\CC4CC=CC34)cc2)c(Br)c1` (centres undefined), the Potency is reported as inconclusive: 13.1 µM [inhibitor, single point].
With `Cc1cc[n+](-c2[nH]c(=O)sc2/C=N/N=C(\[O-])c2ccccc2)cc1` the “activity change, negative = inhibition” value was inactive: 52.3%.
With `CCc1cc(C(=O)N2CCCC(C(=O)c3cccc(OC(C)C)c3)C2)n(C)n1` (centres undefined) the Potency was inconclusive: 18.5 µM [inhibitor, partial curve, poor fit].
For `CC(C)C[C@H](N)c1nnc(S(=O)(=O)Cc2ccc(F)cc2)o1`, the Potency was inconclusive: 11.7 µM [inhibitor, partial curve, poor fit].
For `CC1CCN(c2oc(Cc3cccc4ccccc34)nc2C#N)CC1`, the Potency was inconclusive: 13.1 µM [inhibitor, partial curve, poor fit].
For `COCCCn1c(SCC(=O)Nc2oc(C)c3c(C)n[nH]c(=O)c23)nc2sc3c(c2c1=O)CCC3`, the “activity change, negative = inhibition” value was inactive: -3.96%.
With `Cc1ccc(C)c2nc(Cl)c(C3NC(=O)c4ccccc4N3)cc12` (centres undefined) the Potency was inconclusive: 18.5 µM [inhibitor, single point].
In the case of `Cc1[nH]c2ccccc2c1CCNC(=O)c1c(N)no[n+]1[O-]`, the “activity change, negative = inhibition” value is reported as inactive: -3.65%.
For `COc1cccc(C(=O)O/N=C(\N)c2ccc([N+](=O)[O-])cc2)c1`, the “activity change, negative = inhibition” value was inactive: 38.8%.
For `CC12CC(NC(=O)N1c1cccc(C(=O)NCc3ccccn3)c1)c1ccccc1O2` (centres undefined), the Potency was inconclusive: 18.5 µM [inhibitor, single point].
For `CN(CC(=O)Nc1ccc(F)c(F)c1F)C(=O)C1=NN(c2ccccc2)C(=O)CC1`, the “activity change, negative = inhibition” value was inactive: 0.526%.
In the case of `COc1ccc(-c2cc(C(=O)Nc3cnn(Cc4ccccc4C)c3)no2)cc1OC`, the “activity change, negative = inhibition” value is reported as inactive: 0.858%.
In the case of `CCN(CCn1cccn1)Cc1nc(Cc2cccc(F)c2)no1`, the Potency is reported as inconclusive: 10.4 µM [inhibitor, single point].
With `CCOC(=O)C1=NNC(C(=O)c2ccc(Cl)cc2)C1c1ccc(OC)cc1` (centres undefined) the Potency was active: 13.1 µM.
In the case of `CC(=O)Nc1ccc(NC(=O)/C=C/c2ccc(Cl)cc2)cc1`, the Potency is reported as inconclusive: 9.28 µM [inhibitor, single point].
With `Cc1nc(C)c(C(=O)C2=C(O)C(=O)N(CCCN(C)C)C2c2ccco2)s1` (centres undefined) the activity change, negative = inhibition was inactive: -19.9% [at 5.75 µM].
With `COc1cc(/C=C2/C(=O)NN(c3ccc(Cl)c(Cl)c3)C2=O)cc([N+](=O)[O-])c1O` the Potency was inconclusive: 9.28 µM [inhibitor, partial curve].
In the case of `Cc1nn(-c2ccccc2)c(N2CCCC2)c1/C=N/NC(=O)c1cc(-c2cccnc2)nc2ccccc12`, the Potency is reported as inconclusive: 4.65 µM [inhibitor, partial curve, poor fit].
For `O=C(NCc1ccc(F)cc1)C(=O)NCC1CCCN1S(=O)(=O)c1ccccc1` (centres undefined), the “activity change, negative = inhibition” value was inactive: -24.5%.
In the case of `CSc1nnnn1-c1ccc(Cl)cc1`, the Potency is reported as inconclusive: 18.5 µM [inhibitor, single point].
For `CCOC(=O)c1c(C)oc2ccc(OC(=O)COc3c(F)c(F)c(F)c(F)c3F)cc12`, the “activity change, negative = inhibition” value was inactive: 0.66%.
With `CN(C)CC[n+]1ccc(C(=O)c2ccccc2)cc1` the “activity change, negative = inhibition” value was inactive: 60.9%.
With `CCOc1ccc(-n2c(=O)cc(N3CCN(c4ccccc4)CC3)[nH]c2=O)cc1` the Potency was inconclusive: 0.0415 µM [inhibitor, full curve, poor fit].
In the case of `C/C(=N\NC(=O)c1cc(C(C)(C)C)[nH]n1)C12CC3CC(CC(C3)C1)C2`, the “activity change, negative = inhibition” value is reported as inactive: 51.4%.
For `CCOC(=O)CSc1nnc(-c2ccco2)n1-c1ccc(C)cc1`, the “activity change, negative = inhibition” value was inactive: 5%.
With `O=C(COC(=O)c1ccc(Br)o1)Nc1nc2ccccc2s1` the “activity change, negative = inhibition” value was inactive: 42.6%.
In the case of `CN1CCC(=NNC(=O)COc2ccc(Cl)cc2)CC1`, the Potency is reported as inconclusive: 0.37 µM [inhibitor, partial curve, poor fit].
For `CC(C)CCNC(=O)c1onc(CSc2ccc(F)cc2)c1C(=O)NCCC(C)C`, the Potency was inconclusive: 3.7 µM [inhibitor, single point].
In the case of `O=C(COCC(=O)Nc1cccc(C(F)(F)F)c1)Nc1cccc(C(F)(F)F)c1`, the Potency is reported as inconclusive: 4.65 µM [inhibitor, single point].
For `CC(=O)N1c2ccc(S(=O)(=O)N3CCCC3)cc2CC1C(=O)NCc1ccc(OC(C)C)cc1` (centres undefined), the Potency was inconclusive: 11.7 µM [inhibitor, single point].
With `C=CCn1c(=N)n(CC(=O)OC)c2ccccc21` the Potency was active: 11.7 µM.
With `Cc1cc2ccccc2n1CCNC(=O)C1CCCC1` the Potency was inconclusive: 1.04 µM [inhibitor, partial curve].
In the case of `O=C(CNC(=O)c1ccc(S(=O)(=O)N2CCCCC2)cc1)N/N=C/c1ccco1`, the “activity change, negative = inhibition” value is reported as inactive: 29.4%.
With `Cc1onc(-c2ccccc2)c1C(=O)NCCc1ccncc1` the Potency was inconclusive: 18.5 µM [inhibitor, single point].
For `FC(F)(F)c1cccc(NC(=S)Nc2cccc(Cl)c2)c1`, the Potency was inconclusive: 0.165 µM [inhibitor, full curve, poor fit].
In the case of `CC(C)C12CN(C(=O)c3ccccc3[N+](=O)[O-])CC(C(C)C)(CN(C(=O)c3ccccc3[N+](=O)[O-])C1)C2=O`, the Potency is reported as inconclusive: 11.7 µM [inhibitor, single point].
For `O=C(O)C1C2C=CC(C2)C1C(=O)Nc1cccc(F)c1` (centres undefined), the Potency was inconclusive: 20.8 µM [inhibitor, partial curve, poor fit].
With `CCOc1ccc(-n2c(O)c(/C=C3\C=Nc4ccccc43)c(=O)[nH]c2=O)cc1` the Potency was inconclusive: 1.85 µM [inhibitor, full curve].
In the case of `CS(=O)c1ccccc1COC(=O)Nc1ccc(Cl)cc1` (centres undefined), the Potency is reported as inconclusive: 2.62 µM [inhibitor, full curve].
With `CCOC(=O)N1CCC(N2Cc3cccc(C(=O)Nc4ccc(CC)cc4)c3C2=O)CC1` the “activity change, negative = inhibition” value was inactive: 47%.
With `O=C(COc1ccc2c3c(c(=O)oc2c1)CCCC3)NCc1cccnc1` the Potency was inconclusive: 16.5 µM [inhibitor, single point].
For `O=C1CSC(c2nn(-c3ccccc3)cc2-c2cc3ccccc3oc2=O)N1Cc1ccco1` (centres undefined), the Potency was inconclusive: 10.4 µM [inhibitor, single point].
With `CCNS(=O)(=O)c1ccc(CCC(=O)Nc2cc(Cl)ccc2Oc2ccccc2)cc1` the Potency was active: 8.28 µM.
In the case of `Cc1cc(NC(=O)c2cc([N+](=O)[O-])cc([N+](=O)[O-])c2)n(-c2ccccc2)n1`, the Potency is reported as inconclusive: 13.1 µM [inhibitor, single point].
In the case of `CN(C)CCCN(C(=O)c1ccc(S(=O)(=O)N2CCCCCC2)cc1)c1nc2c(F)cc(F)cc2s1`, the “activity change, negative = inhibition” value is reported as inactive: -2.11%.
With `O=c1cnc2ccccc2n1Cc1ccc(Br)cc1` the “activity change, negative = inhibition” value was inactive: 18.1%.
With `CCN(CC)S(=O)(=O)c1ccc2[nH]cc(C(=O)NCCCN3CCCCC3)c(=O)c2c1` the Potency was inconclusive: 3.7 µM [inhibitor, single point].
With `CC(C)c1ccc(NS(=O)(=O)c2cccc3cccnc23)cc1` the Potency was inconclusive: 16.5 µM [inhibitor, single point].
For `COc1ccc(CCNC(=O)C2CCN(S(=O)(=O)N3CCOCC3)CC2)cc1OC`, the Potency was inconclusive: 0.0033 µM [inhibitor, full curve, poor fit].
With `CN(CC(=O)Nc1ccc(F)cc1)C(=O)C1CCCC1` the “activity change, negative = inhibition” value was inactive: 19.4%.
In the case of `O=C(c1ccc(Cl)cc1)c1oc2ccccc2c1CS(=O)c1ccc(Cl)cc1` (centres undefined), the Potency is reported as inconclusive: 18.5 µM [inhibitor, single point].
